Data reported in publication PMC5433425 (PeerJ, 2017).
Further values from the same series stand in other lists.

System: E. coli AG100
Assay: EtBr accumulation by real-time fluorometry

Work on `CC[n+]1c(-c2ccccc2)c2cc(N)ccc2c2ccc(N)cc21` [EtBr, ethidium bromide] yielded an EtBr fluorescence (EtBr 0.125 µg/ml, cycle 1) of 1.596, an EtBr fluorescence (EtBr 0.125 µg/ml, cycle 2) of 1.5028 and an EtBr fluorescence (EtBr 0.125 µg/ml, cycle 3) of 1.588. It also gave an EtBr fluorescence (EtBr 0.125 µg/ml, cycle 4) of 1.592, an EtBr fluorescence (EtBr 0.125 µg/ml, cycle 5) of 1.597 and an EtBr fluorescence (EtBr 0.125 µg/ml, cycle 6) of 1.63. For the same molecule, the EtBr fluorescence (EtBr 0.125 µg/ml, cycle 7) was 1.663, the EtBr fluorescence (EtBr 0.125 µg/ml, cycle 8) was 1.624 and the EtBr fluorescence (EtBr 0.125 µg/ml, cycle 9) was 1.729. The EtBr fluorescence (EtBr 0.125 µg/ml, cycle 10) was 1.694, the EtBr fluorescence (EtBr 0.125 µg/ml, cycle 11) was 1.673 and the EtBr fluorescence (EtBr 0.125 µg/ml, cycle 12) was 1.714. The EtBr fluorescence (EtBr 0.125 µg/ml, cycle 13) was 1.753, the EtBr fluorescence (EtBr 0.125 µg/ml, cycle 14) was 1.743 and the EtBr fluorescence (EtBr 0.125 µg/ml, cycle 15) was 1.752. The EtBr fluorescence (EtBr 0.125 µg/ml, cycle 16) was 1.792, the EtBr fluorescence (EtBr 0.125 µg/ml, cycle 17) was 1.836 and the EtBr fluorescence (EtBr 0.125 µg/ml, cycle 18) was 1.815. It also gave an EtBr fluorescence (EtBr 0.125 µg/ml, cycle 19) of 1.776, an EtBr fluorescence (EtBr 0.125 µg/ml, cycle 20) of 1.819 and an EtBr fluorescence (EtBr 0.125 µg/ml, cycle 21) of 1.854. It also gave an EtBr fluorescence (EtBr 0.125 µg/ml, cycle 22) of 1.831, an EtBr fluorescence (EtBr 0.125 µg/ml, cycle 23) of 1.848 and an EtBr fluorescence (EtBr 0.125 µg/ml, cycle 24) of 1.851. The EtBr fluorescence (EtBr 0.125 µg/ml, cycle 25) was 1.842, the EtBr fluorescence (EtBr 0.125 µg/ml, cycle 26) was 1.887 and the EtBr fluorescence (EtBr 0.125 µg/ml, cycle 27) was 1.836. For the same molecule, the EtBr fluorescence (EtBr 0.125 µg/ml, cycle 28) was 1.871, the EtBr fluorescence (EtBr 0.125 µg/ml, cycle 29) was 1.872 and the EtBr fluorescence (EtBr 0.125 µg/ml, cycle 30) was 1.881. The EtBr fluorescence (EtBr 3 µg/ml, cycle 1) was 12.6101, the EtBr fluorescence (EtBr 3 µg/ml, cycle 2) was 13.0793 and the EtBr fluorescence (EtBr 3 µg/ml, cycle 3) was 13.6179. The EtBr fluorescence (EtBr 3 µg/ml, cycle 4) was 14.2557, the EtBr fluorescence (EtBr 3 µg/ml, cycle 5) was 14.5518 and the EtBr fluorescence (EtBr 3 µg/ml, cycle 6) was 15.1909. For the same molecule, the EtBr fluorescence (EtBr 3 µg/ml, cycle 7) was 15.8375, the EtBr fluorescence (EtBr 3 µg/ml, cycle 8) was 16.2305 and the EtBr fluorescence (EtBr 3 µg/ml, cycle 9) was 16.4498. For the same molecule, the EtBr fluorescence (EtBr 3 µg/ml, cycle 10) was 17.2387, the EtBr fluorescence (EtBr 3 µg/ml, cycle 11) was 17.7887 and the EtBr fluorescence (EtBr 3 µg/ml, cycle 12) was 18.2573. It also gave an EtBr fluorescence (EtBr 3 µg/ml, cycle 13) of 18.6703, an EtBr fluorescence (EtBr 3 µg/ml, cycle 14) of 19.2327 and an EtBr fluorescence (EtBr 3 µg/ml, cycle 15) of 19.3909. The EtBr fluorescence (EtBr 3 µg/ml, cycle 16) was 19.6195, the EtBr fluorescence (EtBr 3 µg/ml, cycle 17) was 20.0684 and the EtBr fluorescence (EtBr 3 µg/ml, cycle 18) was 20.5143. The EtBr fluorescence (EtBr 3 µg/ml, cycle 19) was 20.5974, the EtBr fluorescence (EtBr 3 µg/ml, cycle 20) was 21.168 and the EtBr fluorescence (EtBr 3 µg/ml, cycle 21) was 21.4601. The EtBr fluorescence (EtBr 3 µg/ml, cycle 22) was 21.5036, the EtBr fluorescence (EtBr 3 µg/ml, cycle 23) was 21.9456 and the EtBr fluorescence (EtBr 3 µg/ml, cycle 24) was 22.1454. The EtBr fluorescence (EtBr 3 µg/ml, cycle 25) was 22.6033, the EtBr fluorescence (EtBr 3 µg/ml, cycle 26) was 22.8264 and the EtBr fluorescence (EtBr 3 µg/ml, cycle 27) was 23.1827. It also gave an EtBr fluorescence (EtBr 3 µg/ml, cycle 28) of 23.3717, an EtBr fluorescence (EtBr 3 µg/ml, cycle 29) of 23.5013 and an EtBr fluorescence (EtBr 3 µg/ml, cycle 30) of 23.4632. For the same molecule, the EtBr fluorescence (EtBr 4 µg/ml, cycle 1) was 17.1477, the EtBr fluorescence (EtBr 4 µg/ml, cycle 2) was 17.8876 and the EtBr fluorescence (EtBr 4 µg/ml, cycle 3) was 18.6599. For the same molecule, the EtBr fluorescence (EtBr 4 µg/ml, cycle 4) was 19.5698, the EtBr fluorescence (EtBr 4 µg/ml, cycle 5) was 20.1045 and the EtBr fluorescence (EtBr 4 µg/ml, cycle 6) was 21.3024. It also gave an EtBr fluorescence (EtBr 4 µg/ml, cycle 7) of 22.1491, an EtBr fluorescence (EtBr 4 µg/ml, cycle 8) of 23.0927 and an EtBr fluorescence (EtBr 4 µg/ml, cycle 9) of 23.7587. For the same molecule, the EtBr fluorescence (EtBr 4 µg/ml, cycle 10) was 24.5437, the EtBr fluorescence (EtBr 4 µg/ml, cycle 18) was 29.2197 and the EtBr fluorescence (EtBr 4 µg/ml, cycle 19) was 29.4745. It also gave an EtBr fluorescence (EtBr 4 µg/ml, cycle 20) of 30.2731, an EtBr fluorescence (EtBr 4 µg/ml, cycle 21) of 30.3914 and an EtBr fluorescence (EtBr 4 µg/ml, cycle 22) of 30.608. The EtBr fluorescence (EtBr 4 µg/ml, cycle 23) was 30.9119, the EtBr fluorescence (EtBr 4 µg/ml, cycle 24) was 31.2605 and the EtBr fluorescence (EtBr 4 µg/ml, cycle 25) was 31.8732. It also gave an EtBr fluorescence (EtBr 4 µg/ml, cycle 26) of 32.0024, an EtBr fluorescence (EtBr 4 µg/ml, cycle 27) of 32.0831 and an EtBr fluorescence (EtBr 4 µg/ml, cycle 28) of 32.8308. The EtBr fluorescence (EtBr 4 µg/ml, cycle 29) was 33.0276, the EtBr fluorescence (EtBr 4 µg/ml, cycle 30) was 33.2165 and the EtBr fluorescence (EtBr 5 µg/ml, cycle 1) was 23.5626. The EtBr fluorescence (EtBr 5 µg/ml, cycle 2) was 24.6717, the EtBr fluorescence (EtBr 5 µg/ml, cycle 7) was 30.0656 and the EtBr fluorescence (EtBr 5 µg/ml, cycle 8) was 31.1584. It also gave an EtBr fluorescence (EtBr 5 µg/ml, cycle 9) of 32.0155, an EtBr fluorescence (EtBr 5 µg/ml, cycle 10) of 33.0472 and an EtBr fluorescence (EtBr 5 µg/ml, cycle 11) of 33.9366. It also gave an EtBr fluorescence (EtBr 5 µg/ml, cycle 12) of 34.8181, an EtBr fluorescence (EtBr 5 µg/ml, cycle 13) of 35.3605 and an EtBr fluorescence (EtBr 5 µg/ml, cycle 14) of 36.3128. The EtBr fluorescence (EtBr 5 µg/ml, cycle 15) was 36.6225, the EtBr fluorescence (EtBr 5 µg/ml, cycle 16) was 37.2802 and the EtBr fluorescence (EtBr 5 µg/ml, cycle 17) was 38.096. For the same molecule, the EtBr fluorescence (EtBr 5 µg/ml, cycle 18) was 38.4456, the EtBr fluorescence (EtBr 5 µg/ml, cycle 19) was 39.2156 and the EtBr fluorescence (EtBr 5 µg/ml, cycle 20) was 39.6677. For the same molecule, the EtBr fluorescence (EtBr 5 µg/ml, cycle 21) was 40.134, the EtBr fluorescence (EtBr 5 µg/ml, cycle 22) was 40.5214 and the EtBr fluorescence (EtBr 5 µg/ml, cycle 23) was 41.3819. The EtBr fluorescence (EtBr 5 µg/ml, cycle 24) was 41.5393, the EtBr fluorescence (EtBr 5 µg/ml, cycle 25) was 42.4562 and the EtBr fluorescence (EtBr 5 µg/ml, cycle 26) was 42.4714. The EtBr fluorescence (EtBr 5 µg/ml, cycle 27) was 42.6647, the EtBr fluorescence (EtBr 5 µg/ml, cycle 28) was 43.2439 and the EtBr fluorescence (EtBr 5 µg/ml, cycle 29) was 42.9365. For the same molecule, the EtBr fluorescence (EtBr 5 µg/ml, cycle 30) was 43.6808.
